# Reference: US4472305A, “Hexapeptide amides” (Sterling Drug Inc., priority 1983, dated 1984)
# pIC50: −log10 of the molar value. At least one peptide structure holds a part that was inferred or is arguable (an end, a ring closure or a residue). Non-standard residues stand in square brackets, D forms with d. Residues, ends and D or L forms follow the SMILES beside them. dPhg = N[C@@H](C(=O)O)c1ccccc1
# Tested on: rat vas deferens
# Experiment: Rat vas deferens test (SP antagonist effect)
# Type: cell-based
# Details: reversal of potentiation by 10 μM SP of electrically induced contractions
# Experimental: Rat vasa deferentia are suspended in organ baths containing warmed, oxygenated Krebs solution and repetitively field-stimulated (0.1 Hz., 1 msec. duration, monophasic pulses) through platinum wire ring electrodes. Rapid, regular contractions of the muscle are recorded via transducers on a Grass polygraph. SP and related tachykinins added to the bath evoke a dose-dependent, stable potentiation of these electrically-induced contractions. For routine screening, a 10 μM concentration of SP is applied to all tissues to produce a 2-6 fold increase in electrically-stimulated twitch height. SP antagonist compounds (1-30 μM) produce an immediate, dose-related reversal of the response of the tissue to SP, which is quantified by determination of an IC50.
smiles,measurement,value
"CSCC[C@H](NC(=O)[C@H](CC(C)C)NC(=O)[C@@H](Cc1ccccc1)NC(=O)[C@H](Cc1ccccc1)NC(=O)[C@H](NC(=O)[C@@H]1CCCN1)c1ccccc1)C(N)=O [Example 28, HPro-DPhg-Phe-DPhe-Leu-MetNH2] (H-P[dPhg]F[dF]LM-NH2)",pIC50,< 4.40
